# Data as given in PMC9468174.
# Chains of the proteins cited; added tags and fusions are not shown.
# UniProt Q12923: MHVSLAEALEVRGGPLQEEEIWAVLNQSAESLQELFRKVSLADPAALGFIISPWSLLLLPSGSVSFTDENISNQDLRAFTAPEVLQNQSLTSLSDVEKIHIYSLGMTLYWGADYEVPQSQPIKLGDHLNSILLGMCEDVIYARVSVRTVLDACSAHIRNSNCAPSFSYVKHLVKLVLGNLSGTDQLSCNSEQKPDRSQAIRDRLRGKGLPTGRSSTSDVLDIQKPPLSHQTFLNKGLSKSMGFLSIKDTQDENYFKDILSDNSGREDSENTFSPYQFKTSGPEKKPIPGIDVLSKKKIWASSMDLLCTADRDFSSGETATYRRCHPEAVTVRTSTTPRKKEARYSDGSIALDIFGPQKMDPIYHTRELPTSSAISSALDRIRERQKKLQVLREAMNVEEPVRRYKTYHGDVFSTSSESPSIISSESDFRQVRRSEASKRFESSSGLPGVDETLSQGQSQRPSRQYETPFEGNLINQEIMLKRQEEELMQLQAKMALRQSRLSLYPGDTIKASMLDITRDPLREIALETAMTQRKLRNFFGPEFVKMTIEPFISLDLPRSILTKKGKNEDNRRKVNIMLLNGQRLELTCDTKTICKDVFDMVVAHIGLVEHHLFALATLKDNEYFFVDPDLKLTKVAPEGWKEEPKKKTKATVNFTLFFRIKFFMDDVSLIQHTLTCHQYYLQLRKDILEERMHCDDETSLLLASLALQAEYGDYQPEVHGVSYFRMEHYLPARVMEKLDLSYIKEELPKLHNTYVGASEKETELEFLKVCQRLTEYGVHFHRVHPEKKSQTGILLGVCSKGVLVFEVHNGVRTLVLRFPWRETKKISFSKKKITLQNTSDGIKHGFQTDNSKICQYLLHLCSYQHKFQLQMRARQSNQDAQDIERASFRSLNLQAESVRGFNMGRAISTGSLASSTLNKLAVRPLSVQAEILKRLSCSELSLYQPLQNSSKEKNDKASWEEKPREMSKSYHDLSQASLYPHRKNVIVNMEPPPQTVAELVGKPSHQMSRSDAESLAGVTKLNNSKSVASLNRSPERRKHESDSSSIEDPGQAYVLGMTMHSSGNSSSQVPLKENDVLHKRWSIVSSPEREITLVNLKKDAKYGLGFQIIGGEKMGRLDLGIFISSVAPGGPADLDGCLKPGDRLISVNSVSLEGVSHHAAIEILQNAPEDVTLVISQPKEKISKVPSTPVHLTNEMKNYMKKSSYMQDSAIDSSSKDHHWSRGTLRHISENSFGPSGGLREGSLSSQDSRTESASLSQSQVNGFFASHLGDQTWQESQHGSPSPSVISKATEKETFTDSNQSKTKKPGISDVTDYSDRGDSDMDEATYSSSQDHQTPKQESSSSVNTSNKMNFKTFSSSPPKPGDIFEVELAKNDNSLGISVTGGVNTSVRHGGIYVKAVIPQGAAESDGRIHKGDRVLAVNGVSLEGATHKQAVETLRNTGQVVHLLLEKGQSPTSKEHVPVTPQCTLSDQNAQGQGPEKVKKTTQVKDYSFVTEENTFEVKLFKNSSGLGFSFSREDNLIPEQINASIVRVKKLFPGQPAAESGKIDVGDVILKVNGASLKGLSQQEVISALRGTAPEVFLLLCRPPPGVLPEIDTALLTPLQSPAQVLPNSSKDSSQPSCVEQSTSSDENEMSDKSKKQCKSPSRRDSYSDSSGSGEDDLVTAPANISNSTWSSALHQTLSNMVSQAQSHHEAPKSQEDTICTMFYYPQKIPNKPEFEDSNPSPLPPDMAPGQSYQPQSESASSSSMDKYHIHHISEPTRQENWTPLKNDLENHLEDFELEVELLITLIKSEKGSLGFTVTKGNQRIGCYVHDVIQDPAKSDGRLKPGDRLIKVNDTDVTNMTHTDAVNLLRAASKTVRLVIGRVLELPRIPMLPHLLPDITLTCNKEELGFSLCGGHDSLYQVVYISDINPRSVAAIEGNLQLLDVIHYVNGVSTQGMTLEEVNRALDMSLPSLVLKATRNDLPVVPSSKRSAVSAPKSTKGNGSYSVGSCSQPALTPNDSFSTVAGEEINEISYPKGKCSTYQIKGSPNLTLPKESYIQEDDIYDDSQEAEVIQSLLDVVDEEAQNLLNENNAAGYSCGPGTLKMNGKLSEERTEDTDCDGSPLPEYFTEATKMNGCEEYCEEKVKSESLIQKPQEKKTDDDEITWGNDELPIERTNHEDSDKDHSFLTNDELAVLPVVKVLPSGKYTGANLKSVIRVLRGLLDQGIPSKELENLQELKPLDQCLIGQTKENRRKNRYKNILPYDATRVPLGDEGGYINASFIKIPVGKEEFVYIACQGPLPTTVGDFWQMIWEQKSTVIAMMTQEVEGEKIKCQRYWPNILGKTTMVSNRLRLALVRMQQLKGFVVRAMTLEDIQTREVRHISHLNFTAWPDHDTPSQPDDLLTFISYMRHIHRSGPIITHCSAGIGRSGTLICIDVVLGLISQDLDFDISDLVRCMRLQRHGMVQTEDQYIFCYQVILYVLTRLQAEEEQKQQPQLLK
# UniProt O00560: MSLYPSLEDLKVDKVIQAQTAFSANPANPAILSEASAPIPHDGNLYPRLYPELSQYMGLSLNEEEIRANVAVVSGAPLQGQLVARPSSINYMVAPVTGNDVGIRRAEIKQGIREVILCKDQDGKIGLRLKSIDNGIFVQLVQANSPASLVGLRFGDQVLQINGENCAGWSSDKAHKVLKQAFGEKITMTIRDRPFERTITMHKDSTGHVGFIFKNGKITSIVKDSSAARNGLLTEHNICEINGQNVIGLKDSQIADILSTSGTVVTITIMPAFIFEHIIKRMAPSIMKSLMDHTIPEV
# These are yes or no findings as the source states them, for the method shown. In cells and extracts the contact can be indirect. Here binding means that the protein was enriched with, or labelled near, the bait; the list need not be complete.
# Biological target: PTPN13 (human (endogenous in iRPE cells derived from hUCMSCs)) (UniProt Q12923)
# Test: affinity purification with mass spectrometry; Co-IP from iRPE cell lysate with anti-PTPN13 antibody on Protein A + G magnetic beads, 4 °C overnight; eluate digested with trypsin, Nano-HPLC and Q Exactive plus MS/MS
substance,measurement,value
syntenin1 (from UniProt O00560 1-298),binding,binds
